Assay results as given in PubChem BioAssay AID2685 (National Center for Advancing Translational Sciences (NCATS), 2010).
About 2,100 (0.66%) of roughly 320,000 compounds were called active. Inconclusive means that the source gave no clear call. Such entries were picked first, then a sample of the others. The call rests on the fitted dose curve; in most records, active means well fitted inhibition curve with a large enough effect in the signal ratio, with a control signal flat (not every such curve was filed as active); inconclusive means small, poorly fitted or top-dose-only effect, or effect the other way, or a change in a side signal; inactive means flat fitted curve, though single readings scatter; the % refers to the signal ratio. Potencies beside an inconclusive call are fits to weak or partial responses and may not hold up.

Assay: qHTS Assay for Lipid Storage Modulators in Drosophila S3 Cells
Conditions: BODIPY lipid droplet fluorescence, 18-24 h, cells fed with added oleic acid; lipid storage change, negative = inhibition: at 46.1 µM (top of the series) unless noted
How it was run: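 Laser-scanning cytometry quantifies lipid droplet accumulation (500–530 nm total intensity; droplet/cell object ratio) in oleic acid-fed (400 uM added) Drosophila S3 cells treated with a concentration series. 20 uM Triacsin C defined 100% inhibition.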
On the % scale 0 is the no-effect control and ±100 the full control effect; potency means the concentration at half of the fitted maximal effect.

SMILES | lipid storage change, negative = inhibition | Potency
CN(CC(=O)Nc1c(Cl)cccc1Cl)C(=O)CNC(=O)c1ccc2ccccc2c1 | inconclusive: 38.8% | –
Cc1ccc(S(=O)(=O)N2CCN(C3CC(=O)N(CCc4ccccc4)C3=O)CC2)cc1C (centres undefined) | inconclusive: -5.09% | –
Cc1ccc(C(=O)CCC(=O)OCC(=O)NNC(=O)c2ccc([N+](=O)[O-])cc2)cc1 | inconclusive: -64.1% | –
O=C(c1cc(C2CC2)nn1-c1ccccc1)N1CCN(c2ncc(C(F)(F)F)cc2Cl)CC1 | inconclusive: 13.2% | –
COc1ccc(NC(=O)CSCC(=O)N2c3ccccc3CCc3ccccc32)cc1 | inconclusive: 12.9% | –
COc1ccc(NS(=O)(=O)c2ccc(-c3coc(C)n3)cc2)cc1 | – | inconclusive: 0.116 µM [activator, full curve, poor fit]
Cc1cc(C)nc(/N=C2\NC(=O)CC(C(=O)O)N2c2ccc(F)c(Cl)c2)n1 (centres undefined) | inconclusive: 6.47% | –
COc1ccc(-c2cc(C(=O)NCc3cn(C)nc3C)c3ccccc3n2)cc1OC | inconclusive: 26.5% | –
Cc1nc(N2CCC(C(N)=O)CC2)c2nnn(Cc3ccccc3)c2n1 | – | inconclusive: 14.6 µM [activator, partial curve]
Nc1ccc2c(c1)Oc1ccccc1C=C2 | inconclusive: 17.8% | –
CCOC(=O)C1=C(C(F)(F)F)Nc2ncnn2C1c1ccc(OC)c(OC)c1OC (centres undefined) | inconclusive: 5.89% | –
Cc1ccc(C(=O)N/C(=C\c2cccc([N+](=O)[O-])c2)C(=O)OCN2C(=O)c3ccccc3C2=O)cc1 | – | inconclusive: 29.1 µM [rising, single point]
CCOC(=O)C1=C(C)NC(SCC(N)=O)=C(C#N)C1c1ccncc1 (centres undefined) | inconclusive: 51.7% | –
CCCCOP(=O)(c1ccc(N(C)C)cc1)C(O)c1cc(OC)c(OC)c(OC)c1 (centres undefined) | inconclusive: 3.24% | –
O=C(NC(=S)Nc1cccc(Cl)c1Cl)C1CC1 | inconclusive: 72.7% | –
CCOC(=O)c1c(NC(=O)C2=C(C)NC(=S)NC2c2ccc(C)cc2)sc(C)c1C (centres undefined) | inconclusive: -27.4% | –
CCOC(=O)c1c(-c2ccccc2)csc1NC(=O)CSc1nncs1 | inconclusive: 6.86% | –
O=C(CC1C(=O)OCN1C(=O)OCc1ccccc1)OCC(=O)c1ccccc1 (centres undefined) | inconclusive: -32% | –
CCOC(=O)C1CCN(C(=O)Cc2cccs2)CC1 | inconclusive: 11.2% | –
CCOc1ccc(NC(=O)Nc2cc(C)ccc2OC)cc1 | – | inconclusive: 23.1 µM [falling, single point]
Cc1nc(-c2cccc(S(=O)(=O)N3CC(C)CC(C)C3)c2)cs1 (centres undefined) | inconclusive: -60.6% | –
Cc1nc(N2CCN(c3ccccc3)CC2)nc2c1C(=O)CC(c1ccccc1)C2 (centres undefined) | – | inconclusive: 6.51 µM [activator, single point]
CCCCC(=O)NC1(C(F)(F)F)C(=O)N(CC(C)C)C2=C1C(=O)CC(C)(C)C2 (centres undefined) | – | inconclusive: 29.1 µM [activator, single point]
O=C(NCC(c1ccco1)N1CCOCC1)c1ccc(F)cc1 (centres undefined) | inconclusive: -14.4% | –
O=C(CS(=O)(=O)Cc1ccccc1)NCc1ccco1 | inactive: -0.383% | –

SMILES | lipid storage change, negative = inhibition | Potency
O=C(Nc1cccc(S(=O)(=O)N2CCCC2)c1)c1ccc2c(c1)OCO2 | – | inconclusive: 0.0651 µM [activator, full curve, poor fit]
Cc1cccc(CS(=O)(=O)c2ncc(Cl)c(C(=O)Nc3nnc(C(C)C)s3)n2)c1 | inconclusive: -105% | –
O=C1C2CCCN2C(=O)N1CCCCN1CCN(c2ccccc2)CC1 (centres undefined) | inconclusive: -1.67% | –
COc1ccc(NS(=O)(=O)c2ccc3nc(COc4cccc5ccccc45)[nH]c3c2)cc1 | – | inconclusive: 0.92 µM [activator, full curve]
O=C(NC1CCSC1=O)c1cccc(C(=O)NC2CCSC2=O)c1 (centres undefined) | inconclusive: -9.4% | –
COc1ccccc1NC(=O)NNC(=O)c1ccc(-c2ccccc2)cc1 | inconclusive: 21.7% | –
O=C(N/N=C/c1ccc(F)cc1)c1ccc(Br)cc1 | – | inconclusive: 29.1 µM [falling, single point]
O=S(=O)(c1cccc(-c2nnco2)c1)N1CCOCC1 | inconclusive: 30.6% | –
COc1cc(C)nc(N(Cc2ccccc2)S(=O)(=O)c2ccccc2)n1 | – | inconclusive: 20.6 µM [activator, single point]
COC1CCCN(C(=O)c2ccc3nc(Cc4cccc(Cl)c4)oc3c2)C1 (centres undefined) | inconclusive: -25% | –
CCCN(CCC)S(=O)(=O)c1ccc(NS(=O)(=O)c2ccc(F)cc2)cc1 | inconclusive: -1.03% | –
COc1cccc(/C=C/C(=O)OCC(=O)Nc2nnc(-c3ccccc3)o2)c1 | inconclusive | –
NC(=O)CC(c1ccccc1)c1ccc2c(c1)OCO2 (centres undefined) | – | inconclusive: 29.1 µM [activator, single point]
Cc1ccc(C2(C)NC(=O)N(CC(=O)NNC(=O)c3ccccc3F)C2=O)cc1 (centres undefined) | inconclusive: -1.05% | –
CC(c1nnc(SCC(=O)c2c(N)n(C3CC3)c(=O)[nH]c2=O)n1-c1ccc(F)cc1)N(C)C (centres undefined) | inconclusive: -29.9% | –
C=CCc1cc(C)ccc1OCCCn1ccnc1 | – | inconclusive: 23.1 µM [falling, single point]
COc1ccc(CCCc2nnc(SCc3nc4ccccc4c(=O)[nH]3)n2C)cc1 | inconclusive: 21.5% | –
O=C(NNC(=O)c1cc(Br)c(Br)s1)c1ccncc1 | inconclusive: 1.6% | –
Cc1ccccc1NC(=O)NNC(=O)CCc1ccccc1 | inconclusive: 25.8% | –
COc1ccc(/C=N/N=C2/NC(=O)CC(C(=O)O)S2)cc1 (centres undefined) | inactive: -10.8% | –
CC(=O)OC[C@H]1O[C@@H](Sc2cccc3cccnc23)[C@H](OC(C)=O)[C@@H](OC(C)=O)[C@H]1OC(C)=O | inconclusive: -2.55% | –
Brc1ccc(N/N=C(/N=Nc2nn[nH]n2)c2ccccc2)cc1 | inconclusive: 27.2% | –
CSc1cccc(NC(=O)c2cccc3cccnc23)c1 | – | inconclusive: 2.59 µM [falling, partial curve, poor fit]
C=CCNC(=O)c1ccccc1NC(=O)c1ccc(Cl)c(S(=O)(=O)Nc2ccccc2)c1 | inactive: -5.77% | –

Arranged by SMILES length (low to high): part of the list above
SMILES | lipid storage change, negative = inhibition | Potency
Nc1ccc2c(c1)Oc1ccccc1C=C2 | inconclusive: 17.8% | –
C=CCc1cc(C)ccc1OCCCn1ccnc1 | – | inconclusive: 23.1 µM [falling, single point]
O=C(NC(=S)Nc1cccc(Cl)c1Cl)C1CC1 | inconclusive: 72.7% | –
O=C(N/N=C/c1ccc(F)cc1)c1ccc(Br)cc1 | – | inconclusive: 29.1 µM [falling, single point]
Brc1ccc(N/N=C(/N=Nc2nn[nH]n2)c2ccccc2)cc1 | inconclusive: 27.2% | –
COc1ccccc1NC(=O)NNC(=O)c1ccc(-c2ccccc2)cc1 | inconclusive: 21.7% | –
Cc1ccc(C2(C)NC(=O)N(CC(=O)NNC(=O)c3ccccc3F)C2=O)cc1 (centres undefined) | inconclusive: -1.05% | –
Cc1cc(C)nc(/N=C2\NC(=O)CC(C(=O)O)N2c2ccc(F)c(Cl)c2)n1 (centres undefined) | inconclusive: 6.47% | –
CCOC(=O)c1c(NC(=O)C2=C(C)NC(=S)NC2c2ccc(C)cc2)sc(C)c1C (centres undefined) | inconclusive: -27.4% | –
Cc1cccc(CS(=O)(=O)c2ncc(Cl)c(C(=O)Nc3nnc(C(C)C)s3)n2)c1 | inconclusive: -105% | –
Cc1ccc(C(=O)CCC(=O)OCC(=O)NNC(=O)c2ccc([N+](=O)[O-])cc2)cc1 | inconclusive: -64.1% | –
Cc1ccc(C(=O)N/C(=C\c2cccc([N+](=O)[O-])c2)C(=O)OCN2C(=O)c3ccccc3C2=O)cc1 | – | inconclusive: 29.1 µM [rising, single point]
CC(=O)OC[C@H]1O[C@@H](Sc2cccc3cccnc23)[C@H](OC(C)=O)[C@@H](OC(C)=O)[C@H]1OC(C)=O | inconclusive: -2.55% | –
